The filed quantity is “Percent Effect” (%).
The controls that fix the scale are not given in the record; negative values are as filed.
This is an unselected part of the compounds tested.

By UniProt entry, the sequences of proteins in these tests, tags left out. Residues count along the entry.
UniProt P9WFT3, whole entry: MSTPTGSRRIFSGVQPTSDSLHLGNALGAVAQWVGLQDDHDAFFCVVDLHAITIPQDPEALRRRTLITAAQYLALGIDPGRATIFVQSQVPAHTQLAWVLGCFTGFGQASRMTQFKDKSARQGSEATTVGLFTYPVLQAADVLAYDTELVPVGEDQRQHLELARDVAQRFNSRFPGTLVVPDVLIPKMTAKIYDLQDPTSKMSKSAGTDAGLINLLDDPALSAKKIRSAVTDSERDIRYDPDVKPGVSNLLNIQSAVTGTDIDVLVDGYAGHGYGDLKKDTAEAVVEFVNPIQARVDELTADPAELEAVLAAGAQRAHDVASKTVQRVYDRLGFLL
UniProt I6X8D2, whole entry: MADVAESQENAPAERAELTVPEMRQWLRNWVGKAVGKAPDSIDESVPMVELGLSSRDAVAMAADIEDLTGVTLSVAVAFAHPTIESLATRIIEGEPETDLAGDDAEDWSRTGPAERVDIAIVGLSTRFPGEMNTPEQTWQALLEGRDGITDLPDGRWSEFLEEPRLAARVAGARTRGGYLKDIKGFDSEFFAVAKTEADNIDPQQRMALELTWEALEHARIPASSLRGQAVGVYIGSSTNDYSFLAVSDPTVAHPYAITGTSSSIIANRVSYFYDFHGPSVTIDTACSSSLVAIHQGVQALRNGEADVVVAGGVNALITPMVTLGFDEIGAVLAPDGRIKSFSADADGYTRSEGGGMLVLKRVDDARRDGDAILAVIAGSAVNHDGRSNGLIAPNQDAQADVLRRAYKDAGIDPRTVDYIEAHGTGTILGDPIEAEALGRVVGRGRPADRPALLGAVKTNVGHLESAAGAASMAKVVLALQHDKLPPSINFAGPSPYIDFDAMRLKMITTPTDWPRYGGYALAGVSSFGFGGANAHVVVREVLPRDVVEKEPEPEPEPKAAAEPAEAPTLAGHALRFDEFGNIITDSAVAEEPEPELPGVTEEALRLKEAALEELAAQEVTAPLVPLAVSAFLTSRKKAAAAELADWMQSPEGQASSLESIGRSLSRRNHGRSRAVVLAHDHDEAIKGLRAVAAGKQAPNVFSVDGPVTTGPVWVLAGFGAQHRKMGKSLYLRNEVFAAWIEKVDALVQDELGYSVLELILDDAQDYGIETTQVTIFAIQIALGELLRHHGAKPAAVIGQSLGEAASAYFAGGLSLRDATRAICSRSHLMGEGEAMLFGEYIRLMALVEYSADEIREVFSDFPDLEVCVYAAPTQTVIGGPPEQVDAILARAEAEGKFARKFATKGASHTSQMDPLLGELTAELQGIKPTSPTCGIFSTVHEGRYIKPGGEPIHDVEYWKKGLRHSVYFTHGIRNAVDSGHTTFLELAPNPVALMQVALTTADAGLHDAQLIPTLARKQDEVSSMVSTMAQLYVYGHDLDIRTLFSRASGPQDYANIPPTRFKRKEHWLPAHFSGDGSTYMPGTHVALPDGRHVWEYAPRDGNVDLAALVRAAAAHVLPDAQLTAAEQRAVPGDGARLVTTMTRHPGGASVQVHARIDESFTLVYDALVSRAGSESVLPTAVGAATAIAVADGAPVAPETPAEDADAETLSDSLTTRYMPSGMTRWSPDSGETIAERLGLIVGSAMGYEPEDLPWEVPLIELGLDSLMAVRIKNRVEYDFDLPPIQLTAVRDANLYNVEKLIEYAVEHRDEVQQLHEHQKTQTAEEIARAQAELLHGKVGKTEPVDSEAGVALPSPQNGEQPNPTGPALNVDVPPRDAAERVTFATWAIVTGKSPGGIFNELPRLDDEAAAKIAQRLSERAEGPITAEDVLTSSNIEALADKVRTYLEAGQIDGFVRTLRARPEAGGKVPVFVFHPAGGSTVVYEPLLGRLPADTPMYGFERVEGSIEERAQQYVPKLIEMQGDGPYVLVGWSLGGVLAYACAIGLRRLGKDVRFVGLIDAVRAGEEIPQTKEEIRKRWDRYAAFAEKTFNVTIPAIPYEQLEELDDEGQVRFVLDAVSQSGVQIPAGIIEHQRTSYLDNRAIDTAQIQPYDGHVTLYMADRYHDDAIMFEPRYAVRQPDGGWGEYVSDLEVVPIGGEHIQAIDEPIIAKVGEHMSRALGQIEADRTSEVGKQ
UniProt Q4DA54, 1-478: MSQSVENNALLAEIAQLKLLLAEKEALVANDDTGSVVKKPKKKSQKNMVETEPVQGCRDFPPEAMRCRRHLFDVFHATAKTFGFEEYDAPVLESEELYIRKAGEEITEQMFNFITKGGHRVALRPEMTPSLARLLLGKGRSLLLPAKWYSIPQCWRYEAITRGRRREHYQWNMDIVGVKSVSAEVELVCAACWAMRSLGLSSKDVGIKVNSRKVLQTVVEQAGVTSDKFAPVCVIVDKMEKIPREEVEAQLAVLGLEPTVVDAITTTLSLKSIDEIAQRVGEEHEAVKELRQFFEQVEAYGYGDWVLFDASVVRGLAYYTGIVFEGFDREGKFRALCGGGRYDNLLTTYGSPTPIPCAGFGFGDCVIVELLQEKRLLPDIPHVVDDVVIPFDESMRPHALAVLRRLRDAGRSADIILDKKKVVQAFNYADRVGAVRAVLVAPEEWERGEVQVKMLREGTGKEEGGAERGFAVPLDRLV

MtTrpRS: 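Tryptophan-tRNA ligase, Mycobacterium tuberculosis (UniProt P9WFT3). Enzyme assay of tryptophanyl-tRNA synthetase; the read-out is not stated. Compounds at 10 µM. Higher most likely means stronger inhibition; the record gives no direction and few retests gave an IC50. About 65,000 compounds were tested under these conditions; 0.098% (about 64) showed 50% or more at least once.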
Leishmania in macrophages: 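Cell assay of Leishmania donovani living inside macrophages; the read-out is not stated. Concentration: 30 µM. The record gives no direction; compounds that gave an IC50 in retests scored well above the rest, so higher reads as stronger inhibition. Of about 69,000 compounds tested this way, about 1,000 (1.5%) reached 50% or more in at least one test.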
Pks13 thioesterase: 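Polyketide synthase Pks13, Mycobacterium tuberculosis (UniProt I6X8D2). Enzyme assay of the thioesterase domain of polyketide synthase 13; the read-out is not stated. Concentration: 30 µM. The record gives no direction; the compounds picked for IC50 retests had high values, so higher reads as stronger inhibition. Of about 67,000 compounds tested this way, about 300 (0.46%) reached 50% or more in at least one test.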
TcHisRS: 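Enzyme assay of histidyl-tRNA synthetase; the read-out is not stated. Target: Histidine-tRNA ligase, Trypanosoma cruzi CL Brener (UniProt Q4DA54). Concentration: 30 µM. Direction is inferred from retests: higher values go with stronger inhibition. Size under these conditions: about 69,000 compounds, about 31 of them at 50% or above in at least one test.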

Result for Cc1nc(-c2cccc(C(=O)O)c2)cc(C2CCN(C(C)C)C2)n1 (stereo unspecified) was MtTrpRS: -2.25%; Leishmania in macrophages: 3.634%; Pks13 thioesterase: -18.71%; TcHisRS: 2.151%.
Result for COc1cc(F)ccc1N(C)Cc1ccncc1 was MtTrpRS: 4.423%; Leishmania in macrophages: 13.01%; Pks13 thioesterase: -3.788%; TcHisRS: 4.972%.
Result for O=C(NCc1ccc(C(=O)O)o1)c1ccc(F)cc1 was MtTrpRS: 9.074%; Leishmania in macrophages: -13.01%; TcHisRS: -5.263%.
Result for C[C@@H](O)CNC(=O)c1nc(CC(=O)Nc2ccccc2)no1 was MtTrpRS: 3.155%; Leishmania in macrophages: -6.411%; Pks13 thioesterase: 0.6941%; TcHisRS: 0.5181%.
Result for CC[C@H]1CN(C(=O)c2cnc(CN3CCCC3)s2)CC[C@@]1(C)O was MtTrpRS: 4.257%; Leishmania in macrophages: -6.659%; Pks13 thioesterase: -35.08%; TcHisRS: 14.12%.
Result for Cc1ccc(CC(=O)N2CCOC(c3nc(C(C)(C)C)n[nH]3)C2)cn1 (stereo unspecified) was MtTrpRS: 5.877%; Leishmania in macrophages: 33.41%; Pks13 thioesterase: -12%; TcHisRS: 0%.
Result for COCCCN(CCOC)C(=O)Nc1ccc(C)cc1C was MtTrpRS: -4.979%; Leishmania in macrophages: 1.623%; Pks13 thioesterase: -20.67%; TcHisRS: 3.261%.
Result for CNC(=O)c1cc(NC(=O)NC2CC2)ccc1F was MtTrpRS: -0.1899%; Leishmania in macrophages: 0.2008%; Pks13 thioesterase: -18.59%; TcHisRS: 6.667%.
Result for Cc1noc(C2CCCN(Cn3cc(Br)cn3)C2)n1 (stereo unspecified) was MtTrpRS: 3.537%; Leishmania in macrophages: 14.83%; Pks13 thioesterase: -21.5%; TcHisRS: 2.679%.
Result for CCCc1c(C(=O)N2CCN(c3ncccn3)CC2)cnn1C was MtTrpRS: -3.939%; Leishmania in macrophages: 11.49%; Pks13 thioesterase: -10.32%; TcHisRS: 6.897%.
Result for Oc1cccc(CN2CCN(c3nccc(CCC(F)(F)F)n3)CC2)c1 was MtTrpRS: -5.717%; Leishmania in macrophages: -18.91%; Pks13 thioesterase: -16.84%; TcHisRS: 6.145%.
Result for COCC(=O)N1CCCn2c(CN3CCOCC3)nnc2C1.O=C(O)C(F)(F)F was Leishmania in macrophages: 45.36%.
Result for CCc1nc(CNC2CCCCNC2=O)cs1 (stereo unspecified) was MtTrpRS: 2.27%; Leishmania in macrophages: 9.225%; Pks13 thioesterase: -29.76%; TcHisRS: 0%.
Result for CCC(CCO)NS(=O)(=O)c1ccc(Br)cn1 (stereo unspecified) was MtTrpRS: -8.111%; Leishmania in macrophages: 14.73%; Pks13 thioesterase: -3.362%; TcHisRS: 7.563%.
Result for COc1ccc(-c2cc(CC3(NCc4ccc(C)o4)COC3)no2)cc1 was MtTrpRS: 2.656%; Leishmania in macrophages: 4.9%; Pks13 thioesterase: 39.01%; TcHisRS: 5.435%.
Result for CN1CCC2(COCc3cnc(-c4ccccc4)nc32)C1.O=C(O)C(F)(F)F (stereo unspecified) was Leishmania in macrophages: 14.03%.
Result for Cc1nn(C)cc1NC(=O)CN1CCC(Oc2cnccn2)CC1 was MtTrpRS: -0.6114%; Leishmania in macrophages: 1.322%; Pks13 thioesterase: 3.645%; TcHisRS: 3.846%.
Result for O=S1(=O)NC(c2ccnc(N3CCCC3)n2)=Nc2ccccc21 was MtTrpRS: 1.48%; Leishmania in macrophages: 21.56%; Pks13 thioesterase: 0.6654%; TcHisRS: 0.3831%.
Result for CCN(CC)S(=O)(=O)CCNC(=O)c1cc2cccc(F)c2o1 was MtTrpRS: 0.3812%; Leishmania in macrophages: 20.92%; Pks13 thioesterase: -23.35%; TcHisRS: 3.448%.
Result for O=C(c1ccsc1)N1CCCC(c2cc(C(F)(F)F)[nH]n2)C1 (stereo unspecified) was MtTrpRS: 2.632%; Leishmania in macrophages: 25.94%; Pks13 thioesterase: -5.746%; TcHisRS: 3.788%.
Result for CN(C)c1cccc(C(=O)N2C[C@H]3CC[C@@H]2CN(C(=O)C2CCC2)C3)c1 was MtTrpRS: 0.7971%; Pks13 thioesterase: -4.836%; TcHisRS: 3.518%.
Result for Cc1csc(CNC(=O)NCc2ccc3c(c2)OCCO3)n1 was MtTrpRS: -0.2441%; Leishmania in macrophages: 23.14%; Pks13 thioesterase: -14.26%; TcHisRS: -2.521%.

2 of the entries, repeated:

* COCCCN(CCOC)C(=O)Nc1ccc(C)cc1C : MtTrpRS: -4.979%; Leishmania in macrophages: 1.623%; Pks13 thioesterase: -20.67%; TcHisRS: 3.261%
* Oc1cccc(CN2CCN(c3nccc(CCC(F)(F)F)n3)CC2)c1 : MtTrpRS: -5.717%; Leishmania in macrophages: -18.91%; Pks13 thioesterase: -16.84%; TcHisRS: 6.145%

Source: ChEMBL document CHEMBL3988442, “University of Dundee, Small-Polar-MMV Screening Library” (2021).